System: sensitization of Th2 cells to ovalbumin
Experiment: Site of activity: intranasal versus intraperitoneal inhibitor during OVA/Alum sensitization
Assay type: in vivo, mice
Conditions: intranasal every other day

SMILES | site of activity after intranasal administration
CC(=CC(=O)NC1CCCCN(CC(=O)N(C)c2ccccc2)C1=O)c1ccc(C(F)(F)P(=O)(OCOC(=O)C(C)(C)C)OCOC(=O)C(C)(C)C)cc1 (centres unmarked) [PM-43I] | restricted to the lung
C/C(=C\C(=O)N[C@H](C(=O)N1CCC[C@H]1C(=O)N1CCCc2ccccc21)C(C)(C)C)c1ccc(C(F)(F)P(=O)(OCOC(=O)C(C)(C)C)OCOC(=O)C(C)(C)C)cc1 [PM-86I] | restricted to the lung
